Assay results from US20220227870A1.
These are yes or no findings as the source states them, for the method shown. Some entries that bind do so weakly or less than the wild type.

Protein sequences, listed by entry. Tags and fused reporters are not part of them. Residues count along the entry.
UniProt Q08722, residues 19-323: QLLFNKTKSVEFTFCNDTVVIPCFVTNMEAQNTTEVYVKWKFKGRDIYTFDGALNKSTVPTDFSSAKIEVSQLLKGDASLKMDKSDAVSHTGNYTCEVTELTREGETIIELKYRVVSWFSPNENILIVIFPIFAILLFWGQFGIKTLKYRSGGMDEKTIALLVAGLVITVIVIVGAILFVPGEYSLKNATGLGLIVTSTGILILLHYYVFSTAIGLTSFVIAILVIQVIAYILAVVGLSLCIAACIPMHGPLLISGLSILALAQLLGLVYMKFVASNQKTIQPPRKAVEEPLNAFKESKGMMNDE

Key:
[1] = biological target: human CD47 expressed on the surface of cells (CHO-S-CD47 cells) (human) (UniProt Q08722); assay: FACS on CHO-S cells overexpressing human CD47, PE-conjugated anti-human Fc detection, MFI
[2] = biological target: human CD47 expressed on the surface of cells (CHO-S-CD47 cells) (human) (UniProt Q08722); assay: FACS on CHO-S-CD47 cells; ADI 29341 as positive control

binding [1]: binds | binding [2]: binds
B1: anti-CD47 antibody ADI-29341 (antibody, V domains shown)
VH: QVQLQESGPGLVKPSETLSLTCTVSGGSIEHYYWSWIRQPPGKGLEWIGYIYYSGSTNYNPSLKSRVTISVDTSKNQFSLKLSSVTAADTAVYYCARGKTGSAAWGQGTLVTVSS
VL: DIQMTQSPSSVSASVGDRVTITCRASQGISRWLAWYQQKPGKAPKLLIYAASSLQSGVPSRFSGSGSGTDFTLTISSLQPEDFATYYCQQTVSFPITFGGGTKVEIK
